Measured values: US20250339542A1, “CONVERSION OF A BIOLOGICALLY SILENT MIRNA BINDING SMALL MOLECULE TO AN MIRNA DEGRADER” (University of Florida Research Foundation, Incorporated, priority 2020, published 2025)
“And” between values parts separate entries of the source, which are not always exact repeats. Identical values can stand only once. “Also recorded” adds a separate entry of the source. Like-named read-outs stand apart in the source and are kept apart here. At least one compound was matched to its structure with a doubt left.

Tests used:
pre-miR-155 [1] = experiment: In vitro RNase L cleavage assay of pre-miR-155; assay type: biochemical, human
Protocol: pre-miR-155 was then incubated with compound 3 in vitro in an RNase L cleavage assay.
PCR amplification and transcription of DNA templates. PCR amplification of DNA templates of pre-miR-155 and mutants were performed using the pre-miR-155 forward primer containing T7 RNA polymerase promoter and a reverse primer common to both the pre-miR-155 Wild type and Mutant templates. The sequence of Oligonucleotides used in this study can be found in Table 4. PCR amplification was carried out in 350 μL of 1× PCR buffer (10 mM Tris-HCl, pH 9.0, 50 mM KCl, and 0.1% (v/v) Triton X-100), 0.33 mM dNTPs, 4.25 mM MgCl2, 2 μM of each primer(100 μM), and 1.7 μL of Taq DNA polymerase. Thermocycling was done for 35 cycles at 95° C. for 30 s, 55° C. for 30 s, and 72° C. for 60 s. PCR products were confirmed by a 2.5% Agarose Gel stained with ethidium bromide before in vitro transcription. In vitro RNA transcription for the target RNAs were carried out using house made reagents as described previously.^11

MDA-MB-231 cells = experiment: Migration assay of MDA-MB-231 cells; assay type: cell-based, human; settings: compound 3 at 1×10^−7 M
Protocol: (§1) Migration Assay: The Migration assay was performed the same as previous publication^15. Briefly, MDA-MB-231 cells were serum starved for 12 h in RPMI medium without FBS. Then, samples of 50,000 cells treated with vehicle or 155-Ribotac in serum starved medium were seeded into Hanging cell culture Inserts with 8.0 µm pores for 24 well plate with complete growth medium in the bottom well. After 20 h, the medium was aspirated and the inserts and the bottom wells were washed with DPBS twice. Then to the bottom well were added 400 µL of 4% paraformaldehyde. After fixing for 20 min. The inserts and wells were washed with DPBS twice and then treated with 400 µL of 0.1% crystal violet solution. After 20 min, the wells and inserts were washed with water twice and PBS once. Cotton swabs were used to remove the cells inside the inserts. Migration inserts were completely air-dried and imaged by using a Leica DMI3000 B upright fluorescent microscope.

miR-155 = experiment: RT-qPCR of mature miR-155 levels in MDA-MB-231 cells; assay type: cell-based, human; settings: 48 h
Protocol: (§2) Tissue Culture. MDA-MB-231 cells were obtained from ATCC (HTB-26) and cultured in RPMI medium with […] & 25 mM HEPES (Corning) supplemented with 10% FBS (sigma). MCF-10a cells were obtained from ATCC(CRL-10317) and cultured in DMEM/F12 50/50 with glutamine and 15 mM HEPES(Corning) containing 20% FBS(Sigma), 1×Antibiotic-Antimycotic(Corning), 20 ng/mL of human epidermal growth factor(Pepro Tech Inc.), 100 μg/mL of insulin and […] of hydrocortisone (Pfizer &Bauer). HUVECs were cultured in EGM (Lonza) made using the EGM-2 bullet kit (Lonza) per the manufacturers protocol.
(§3) RT-qPCR analysis for Mature, Primary and Precursor miRNAs and mRNA levels. After compound treatment for the indicated time (MDA-MB-231 48 h and HUVECs 24 h), total RNA was extracted using the Zymo Quick-RNA mini prep kit according to the manufacturers protocol. […] The obtained data was analyzed by using the ΔΔCt method as described previously. […] Then the media was changed with fresh growth medium without compound and the cells incubated for 12, 24 and 36 h with RNA harvested and pre-miR-155 levels analyzed as described above.
(§4) RT-qPCR analysis for Mature, Primary and Precursor miRNAs and mRNA levels part. Relative RNA expression was determined by using ΔΔCt method with 18S rRNA as an internal control. Normalized fold change was calculated with the equation as below: […]

MCF-10a cells = experiment: Migration assay of transfected MCF-10a cells; assay type: cell-based
Protocol: Lastly, the dependence of migration on miR-155 and the activity of 3 on the presence of the 5′GAU/3′C_A bulge was assessed. MCF-10a cells, a model of healthy breast epithelium, were transfected with wild type pre-miR-155 and mutant pre-miR-155, where the 5′GAU/3′C_A bulge is mutated to an AU base pair. […] Treatment with 3 reduced migration of MCF-10a cells transfected with WT pre-miR-155 by 60%, in contrast to mutant miR-155 expressing cells in which the compound's binding site has been ablated, the migration of which was unaffected by 3 treatment.
as §1, with “Migration inserts were completely air-dried and imaged by using a Leica DMI3000 B upright fluorescent microscope.” left out

RNase L / pre-miR-155 = target: T1, RNase L / pre-miR-155 (Homo sapiens, UniProt Q05823); experiment: Immunoprecipitation of RNase L from MDA-MB-231 cells, RT-qPCR of pre-miR-155; assay type: cell-based; settings: 100 nM, 48 h, relative to untreated
T1 construct: RNase L was immunoprecipitated from MDA-MB-231 cells; endogenous in cells; host or cells: MDA-MB-231
T1 sequence (Q05823 1-741): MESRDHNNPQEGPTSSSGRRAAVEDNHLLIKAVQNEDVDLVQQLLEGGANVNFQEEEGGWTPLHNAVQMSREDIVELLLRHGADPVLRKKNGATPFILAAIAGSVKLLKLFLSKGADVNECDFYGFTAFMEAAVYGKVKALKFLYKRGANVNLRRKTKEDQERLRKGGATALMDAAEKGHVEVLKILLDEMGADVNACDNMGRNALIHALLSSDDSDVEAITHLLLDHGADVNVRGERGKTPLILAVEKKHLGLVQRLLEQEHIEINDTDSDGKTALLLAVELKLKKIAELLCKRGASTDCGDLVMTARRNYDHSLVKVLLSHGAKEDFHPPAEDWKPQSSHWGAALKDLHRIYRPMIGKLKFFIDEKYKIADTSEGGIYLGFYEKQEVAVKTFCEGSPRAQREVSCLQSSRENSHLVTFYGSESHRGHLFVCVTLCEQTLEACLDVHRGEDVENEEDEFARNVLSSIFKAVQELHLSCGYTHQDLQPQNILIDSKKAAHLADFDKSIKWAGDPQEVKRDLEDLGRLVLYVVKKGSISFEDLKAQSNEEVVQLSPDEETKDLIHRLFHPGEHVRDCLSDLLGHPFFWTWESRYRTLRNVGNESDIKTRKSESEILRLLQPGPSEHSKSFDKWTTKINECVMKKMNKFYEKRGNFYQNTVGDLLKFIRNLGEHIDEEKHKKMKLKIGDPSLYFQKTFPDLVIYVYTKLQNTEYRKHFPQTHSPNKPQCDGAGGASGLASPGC
Protocol: Immunoprecipitation of RNase L. RNase L immunoprecipitation is performed according to published procedures.^16 Briefly, at […], MDA-MB-231 cells were treated with vehicle, 100 nM of 3 or 5 for 48 h. Cells were then washed with DPBS, and detached by scraper. The collected cells were lysed in 100 L of M-PER buffer(78503, Thermo Fisher) containing 1× Protease Inhibitor Cocktail III for Mammalian Cells (Research Products International Corp.) and 80 U of RNaseOUT Recombinant Ribonuclease Inhibitor (Invitrogen) per the manufacture's protocol. The samples were centrifuged at 13,000×g at 4° C. Protein concentration was determined by using a Pierce Mico BCA Protein Assay kit (Fisher Scientific). Approximately 200 g of the total protein per sample was incubated at 4° C. overnight with Dynabeads Protein A (Life Technologies) bound to either RNase L mouse primary antibody (Santa Cruz Biotechnology: sc-74405) or j-actin mouse primary antibody (Cell signaling: 8H10D10). Beads were then washed with 1× DPBST (1× DPBS supplemented with 0.02% Tween-20) for 3 times, after which RNA was extracted by using a miRNeasy Mini Kit (Qiagen) per the manufacturer's instructions. RT-qPCR was performed the same as mentioned above.

[2] = system: RNA isoforms of miR-155 that contain the 5′GAU/3′C_A binding site; experiment: RT-qPCR of RNA isoforms of miR-155 (same binding site) in MDA-MB-231 cells; assay type: cell-based, human; settings: 48 h
Protocol: Next, the selectivity of 3 to inhibit miR-155 out of 373 expressed miRNAs in MDA-MB-231 cell was assessed. […] A comparison of their structures to the aforementioned list of miRNAs with potential RIBOTAC sites identified that all except pre-miR-101-1 and pre-let-7g have a RIBOTAC targetable motif.
(§5) RT-qPCR analysis for Mature, Primary and Precursor miRNAs and mRNA levels. After compound treatment for the indicated time (MDA-MB-231 48 h and HUVECs 24 h), total RNA was extracted using the Zymo Quick-RNA mini prep kit according to the manufacturers protocol. Reverse Transcription (RT) for microRNAs and pri- and pre-miR-155 were done on 200 ng of RNA using the miScript II RT kit (Qiagen) according to the manufacturer's protocol. The mRNAs were done using QScript (Quanta Bio) on 200 ng of total RNA according to the manufacturer's protocol. RT-qPCR was done as mentioned above. The obtained data was analyzed by using the ΔΔCt method as described previously. For the washout experiment, MDA-MB-231 cells were treated with 3 for 48 h. Then the media was changed with fresh growth medium without compound and the cells incubated for 12, 24 and 36 h with RNA harvested and pre-miR-155 levels analyzed as described above.

pre-miR-155 [3] = experiment: RT-qPCR of pre-miR-155 levels in MDA-MB-231 cells; assay type: cell-based, human
Protocol: as §2, §5, §4

pri-miR-155 = experiment: RT-qPCR of pri-miR-155 levels in MDA-MB-231 cells; assay type: cell-based, human
Protocol: as §2, §3, §4

[4] = system: miR-18a associated proteins; experiment: Global proteomics in MDA-MB-231 cells, miR-18a associated proteins; assay type: cell-based, human; settings: 1×10^−7 M
[5] = system: 98 direct targets of miR-155; experiment: Global proteomics in MDA-MB-231 cells, miR-155 associated proteins; assay type: cell-based, human; settings: 1×10^−7 M
[6] = system: isoforms of miR-155 that contain the same binding site; experiment: RT-qPCR of isoforms of miR-155 in HUVEC cells; assay type: cell-based, human

## CCOC(=O)C1=C(Nc2ccccc2)S/C(=C\c2ccc(OCCOCCOCCOCCNC(=O)CCc3c(C)n(-c4c(C(C)C)cccc4C(C)C)c[n+]3-c3c(C(C)C)cccc3C(C)C)c(O)c2)C1=O [Compound 3]
pre-miR-155 [1]; RNase L, cleavage at residues U28 to U30, read-out: IC50 of cleavage of pre-miR-155
  IC50: ~100 nM
pre-miR-155 [1]; in vitro activity, summary, read-out: IC50 against pre-miR-155
  IC50: ≤ 100 nM
MDA-MB-231 cells
  inhibition of cellular migration: inhibited
miR-155
  effect on miR-155 levels / miR-155 biogenesis: dose dependent cleavage; also recorded: decreases levels of mature miR-155
MCF-10a cells; MCF-10a cells expressing mutant pre-miR-155 (binding site ablated)
  effect on migration: unaffected
MCF-10a cells; mock transfected MCF-10a cells
  effect on migration: nor was there an effect
RNase L / pre-miR-155
  enrichment of pre-miR-155 in RNase L pulldown fractions: 2.3 fold and 2 fold
[2]
  effect on RNA isoforms of miR-155: unaffected
pre-miR-155 [3]; MDA-MB-231 cells
  effect on pre-miR-155 levels: decreasing its expression levels
pre-miR-155 [3]; MDA-MB-231 cells transfected with anti-RNase L-siRNA, 3 at 1×10^−7 M
  ability to degrade pre-miR-155 and pri-miR-155 after knockdown of RNase L: ablated
pre-miR-155 [3]; MDA-MB-231 cells, post-removal of compound after 48 h
  time at which pre-miR-155 levels returned to normal: 36 h
pri-miR-155
  effect on pri-miR-155 levels: decreasing its levels
[4]
  change in miR-18a associated proteins: no significant change
[5]
  expression of miR-155 associated proteins relative to all detected proteins: significant upregulation; also recorded: significantly upregulated
[6]
  effect on isoforms of miR-155: does not affect; also recorded: did not affect
